Laboratory results published in PMC10695398.

Amino acid sequences for entries named in this document (tags omitted).
UniProt F5HF68: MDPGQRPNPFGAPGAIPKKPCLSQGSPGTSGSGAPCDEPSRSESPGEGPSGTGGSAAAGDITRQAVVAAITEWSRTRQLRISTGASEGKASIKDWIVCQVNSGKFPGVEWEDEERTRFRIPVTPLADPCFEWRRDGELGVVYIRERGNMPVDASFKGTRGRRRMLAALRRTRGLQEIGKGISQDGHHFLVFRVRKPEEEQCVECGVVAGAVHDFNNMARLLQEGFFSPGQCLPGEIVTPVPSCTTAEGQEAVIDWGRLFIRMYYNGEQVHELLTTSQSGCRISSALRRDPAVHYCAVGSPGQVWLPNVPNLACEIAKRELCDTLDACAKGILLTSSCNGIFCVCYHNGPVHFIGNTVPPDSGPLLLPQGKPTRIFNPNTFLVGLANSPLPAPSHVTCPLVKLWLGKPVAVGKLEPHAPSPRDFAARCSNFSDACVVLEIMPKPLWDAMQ
UniProt P40763: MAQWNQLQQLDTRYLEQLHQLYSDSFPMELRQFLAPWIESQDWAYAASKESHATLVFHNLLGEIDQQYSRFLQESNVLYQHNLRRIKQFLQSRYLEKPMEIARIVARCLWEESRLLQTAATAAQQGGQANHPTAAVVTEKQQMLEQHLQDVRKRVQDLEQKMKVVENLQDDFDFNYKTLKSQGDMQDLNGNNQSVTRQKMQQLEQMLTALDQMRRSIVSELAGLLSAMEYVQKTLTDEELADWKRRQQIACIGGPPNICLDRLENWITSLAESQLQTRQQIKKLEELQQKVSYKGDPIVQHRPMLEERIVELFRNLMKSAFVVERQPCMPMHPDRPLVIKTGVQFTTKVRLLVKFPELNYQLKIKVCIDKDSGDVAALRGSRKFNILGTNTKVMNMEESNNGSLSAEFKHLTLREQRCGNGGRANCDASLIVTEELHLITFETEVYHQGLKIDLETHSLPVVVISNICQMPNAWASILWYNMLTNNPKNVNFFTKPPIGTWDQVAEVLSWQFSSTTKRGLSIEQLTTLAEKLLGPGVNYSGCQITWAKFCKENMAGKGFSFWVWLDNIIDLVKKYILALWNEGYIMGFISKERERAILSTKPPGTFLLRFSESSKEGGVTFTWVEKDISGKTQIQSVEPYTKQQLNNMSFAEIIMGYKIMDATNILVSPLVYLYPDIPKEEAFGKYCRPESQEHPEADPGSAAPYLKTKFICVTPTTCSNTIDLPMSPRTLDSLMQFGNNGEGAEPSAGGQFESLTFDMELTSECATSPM

Target: affinity-tagged vIRF-1 of the mass spectrometry analysis (human herpesvirus 8 (HHV-8)) (UniProt F5HF68)
Experiment: affinity purification with mass spectrometry

Substance: cellular STAT3 found in the mass spectrometry analysis (from UniProt P40763 1-770)
- binding: binds

These are yes or no findings as the source states them, for the method shown. In cells and extracts the contact can be indirect. A yes stands for co-enrichment or nearness to the bait. Other partners may have been found.
